# Laboratory results from PubChem BioAssay.
# This is one part of the list.
# Assay: Primary imaging screen for DUSP6 inhibitors that restore phospho-Erk in transfected HeLa cells, chemical complementation (AID 609)
# Settings: HeLa MKP-3 transfected, phospho-Erk imaging KS statistic; measured here: cell density z-score; at 10 µM; cells stimulated with TPA for 15 min
row,Compound,z-score
1,CCN(CC)CC(O)COC(=O)C(O)(c1ccccc1)C1CCCCC1 (centres undefined),-0.467
2,Cc1cccc(OCC(=O)OC2CN3CCC2CC3)c1 (centres undefined),-0.952
3,Cc1ccc(OCC(=O)OC2CN3CCC2CC3)cc1 (centres undefined),0.823

# Same assay, conditions: HeLa MKP-3 transfected, phospho-Erk imaging KS statistic; measured here: nuclear c-Myc green intensity z-score; at 10 µM; cells stimulated with TPA for 15 min
row,Compound,z-score
1,CCN(CC)CC(O)COC(=O)C(O)(c1ccccc1)C1CCCCC1 (centres undefined),0.555
2,Cc1cccc(OCC(=O)OC2CN3CCC2CC3)c1 (centres undefined),-1.07
3,Cc1ccc(OCC(=O)OC2CN3CCC2CC3)cc1 (centres undefined),-0.68

# Same assay, conditions: HeLa MKP-3 transfected, phospho-Erk imaging KS statistic; measured here: nuclear pErk red intensity z-score; at 10 µM; stronger effect = higher value; cells stimulated with TPA for 15 min
row,Compound,z-score
1,CCN(CC)CC(O)COC(=O)C(O)(c1ccccc1)C1CCCCC1 (centres undefined),-0.742
2,Cc1cccc(OCC(=O)OC2CN3CCC2CC3)c1 (centres undefined),0.998
3,Cc1ccc(OCC(=O)OC2CN3CCC2CC3)cc1 (centres undefined),1.41
